For this series the following is noted: stored at 40° C.

Counter-ions that a name gives are not always drawn.

With `COc1cc2c(cc1OC)C(=O)C(CC1CCN(Cc3ccccc3)CC1)C2` (stereo not shown) [amorphous donepezil hydrochloride, donepezil hydrochloride], the “change in the impurity content” value is recorded as “no change”.
